According to PubChem BioAssay (Tox21):
This list was built around the results that the source calls inconclusive (neither active nor inactive); the mix of calls is not that of the screen. For some assays here: A potency beside an inconclusive call is a rough fit, not a confirmed value. The source made the active and inactive calls. Calls follow the shape of the full dose curve. Positions of bridges follow the written chain, without caps; N, C: chain ends. Non-standard residues stand in square brackets, D forms with d. Residues, ends and D or L forms follow the SMILES beside them. hArg = N=C(N)NCCCC[C@H](N)C(=O)O; Mpa = O=C(O)CCS

Each compound was assayed against Beta-2 adrenergic receptor (Homo sapiens) (UniProt P07550) (assay: Adrenergic beta2 receptor (ADRB2) small molecule antagonists, cell-based qHTS assay (AID 1963592; also: nearly all actives have a fitted effect of over 50% in size)). Conditions: CHO-ADRB2 cells, isoproterenol-stimulated cAMP HTRF ratio, 0.5 h; activity change, negative = inhibition: at 92.4 µM (top of the series) unless noted.
Outline: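 Assay format: CHO-ADRB2 cells, 18-20hr seeding at 37C/5% CO2, then compound plus 1nM isoproterenol agonist mix for 0.5hr RT. Homogeneous time-resolved fluorescence cAMP detection after 1hr, expressed as 665/615 nm ratio.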
% is scaled to controls: 0 for no effect and ±100 for the full control effect.

SMILES	activity change, negative = inhibition
CCCCCCCCOc1ccccc1C(=O)Nc1ccc(C(=O)OCC[N+](C)(CC)CC)cc1	inconclusive: -35.4% [at 42.5 µM]
C/C(=C\c1ccc(C(=O)O)cc1)c1ccc2c(c1)C(C)(C)CCC2(C)C	inactive: 0.0114% [at 42.5 µM]
CCOC(=O)c1ccc(O)c(O)c1	inactive: 8.83% [at 42.5 µM]

What follows are compounds tested against Beta-2 adrenergic receptor (Homo sapiens) (UniProt P07550) (assay: Adrenergic beta2 receptor (ADRB2) small molecule agonists, cell-based qHTS assay (AID 1963593; also: potency is read from the fitted curve at half-maximal effect;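 as to activation: CHO cells stably overexpressing human ADRB2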)). Conditions: CHO-ADRB2 cells, cAMP HTRF, 30 min; activation: at 92.4 µM (top of the series) unless noted.
Outline: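 CHO cells stably over-expressing ADRB2 were plated overnight at 37C, then dosed with compounds plus a stimulation mix containing 100uM IBMX and 25uM Ro-20-1724 for 0.5hr at room temperature. cAMP was measured by HTRF competition, 1hr.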

SMILES	activation	Potency
CCOc1ccccc1O	inactive: -10%	
c1ccc(C[n+]2cccc3ccccc32)cc1		inconclusive: 27.3 µM [inhibitor, single point]
Nc1ccc(-c2ccc(F)cc2)cc1		inconclusive: 1.37 µM [inhibitor, full curve, poor fit]
O=C(O)CCCCCCCCCC(=O)O	inconclusive: 6.71%	
CC1=C(O)C(=O)OC1C (stereo not drawn)	inactive: -8.92%	
CCCCOCCOCCSC#N	inconclusive: 27.6%	
CCOCN(C(=O)CS(=O)(=O)O)c1c(C)cccc1CC	inactive: 30%	
Nc1cccc2c1CN(C1CCC(=O)NC1=O)C2=O (stereo not drawn)	inactive: -0.627% [at 42.5 µM]	
COc1ccc(C(C)=O)cc1	inactive: 1.45%	
Cc1cccc(O)c1C		inactive
CCCCCCOC(=O)CC	inactive: 8.55%	
CCCCCCNC(=O)n1cc(F)c(=O)[nH]c1=O	inactive: 0.947% [at 42.5 µM]	
O=[N+]([O-])c1cc(C(F)(F)F)ccc1Cl	inconclusive: -22.4%	
Cc1cn([C@@H]2O[C@H](CO)[C@@H](O)[C@@H]2F)c(=O)[nH]c1=O	inconclusive: 3.2% [at 42.5 µM]	
Cc1cccc(Oc2ccccc2)c1		inconclusive: 2.66 µM [inhibitor, partial curve, poor fit]
Oc1cc2ccccc2cc1O	inactive: 33.6%	
COc1ccc(Cl)cc1C(=O)NCCc1ccc(S(=O)(=O)NC(=O)NC2CCCCC2)cc1	inconclusive: -37.1% [at 42.5 µM]	inconclusive: 54.5 µM [inhibitor, partial curve, poor fit]

A draw from above in order of number of heavy atoms, ascending:
SMILES	activation	Potency
Cc1cccc(O)c1C		inactive
Cc1cn([C@@H]2O[C@H](CO)[C@@H](O)[C@@H]2F)c(=O)[nH]c1=O	inconclusive: 3.2% [at 42.5 µM]	
Nc1cccc2c1CN(C1CCC(=O)NC1=O)C2=O (stereo not drawn)	inactive: -0.627% [at 42.5 µM]	

The list goes on.

SMILES	activation	Potency
CC(COc1ccccc1)NN (stereo not drawn)		inconclusive: 0.668 µM [inhibitor, full curve, poor fit]
O=C(O)c1ccc(O)cc1	inconclusive: -3.88%	
COCC(=O)O	inconclusive: 0.576%	
CCC(C)(O)CCCC(C)C (stereo not drawn)	inconclusive: 5.61%	
COCCOCCOC	inconclusive: 3.82%	
CN(C(=O)CCCOc1ccc2[nH]c(=O)ccc2c1)C1CCCCC1	inactive: -4.21% [at 42.5 µM]	
CCOc1ccc(O)cc1	inconclusive: 5.62%	
NC(=O)[C@@H]1CSSCCC(=O)N[C@@H](CCCCN=C(N)N)C(=O)NCC(=O)N[C@@H](CC(=O)O)C(=O)N[C@@H](Cc2c[nH]c3ccccc23)C(=O)N2CCC[C@H]2C(=O)N1 ([Mpa][hArg]GDWPC-NH2; disulfide 1-7)	inactive: -1.3% [at 42.5 µM]	
Cc1cc(NC(=O)C2=C(O)c3ccccc3S(=O)(=O)N2C)no1	inactive: 11.1% [at 42.5 µM]	
CCCSSCCC	inactive: -1.03%	
COc1nccnc1CC(C)C	inconclusive: -18.9%	
Cc1ccc2c(c1)OCC(=O)CO2		inconclusive: 27.3 µM [inhibitor, single point]
CN[C@@H]1[C@H](O)[C@H](NC)[C@H]2O[C@@]3(O)C(=O)C[C@@H](C)O[C@H]3O[C@@H]2[C@H]1O	inconclusive: 30.9% [at 42.5 µM]	
CCCCCCCCOc1ccccc1C(=O)Nc1ccc(C(=O)OCC[N+](C)(CC)CC)cc1	inconclusive: -45.3% [at 42.5 µM]	
CCO[Si](CC(C)C)(OCC)OCC	inconclusive: -17%	
CCCCCCOC(=O)c1ccccc1O	inactive: -11.2%	
CNC(=O)CN(CCN(CCN(CC(=O)[O-])CC(=O)NC)CC(=O)[O-])CC(=O)[O-].O.[Gd+3]	inconclusive: -1.79% [at 42.5 µM]	
